From paper PMC3323571
Residue numbers refer to the chain shown, from its start. No constants are given. Whether binding was seen depends on the method and setting. In cells and extracts the contact can be indirect. Some results given as binding are weak or reduced against the parent protein; the word gives no strength. Sequences can lack the tags named with a protein.

Experiments:
[1] = target: T1, Flag-tagged NHERF1 E225K mutant (human) (UniProt O14745); test: co-IP; HeLa cells co-transfected with GFP-NPT2a and Flag-NHERF1 (wild type or mutant); Flag-NHERF1 immunoprecipitated with anti-Flag antibody, immunoprecipitates probed with anti-GFP on Western blot
T1 sequence: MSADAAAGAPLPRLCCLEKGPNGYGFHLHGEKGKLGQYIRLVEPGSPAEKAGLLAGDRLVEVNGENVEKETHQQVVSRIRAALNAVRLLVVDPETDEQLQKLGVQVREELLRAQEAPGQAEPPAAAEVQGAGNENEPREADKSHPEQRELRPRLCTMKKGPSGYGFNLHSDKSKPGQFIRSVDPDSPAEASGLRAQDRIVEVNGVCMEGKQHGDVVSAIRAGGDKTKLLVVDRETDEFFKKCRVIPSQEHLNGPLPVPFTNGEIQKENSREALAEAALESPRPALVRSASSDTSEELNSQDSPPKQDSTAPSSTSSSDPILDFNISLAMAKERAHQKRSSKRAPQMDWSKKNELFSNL

[2] = target: T2, Flag-tagged NHERF1 R153Q mutant (human) (UniProt O14745); test: as above
T2 sequence: T1 sequence with R153Q, K225E

B1: GFP-tagged NPT2a (type 2a sodium-phosphate cotransporter) (protein, UniProt Q06495 1-639)
chain: MLSYGERLGSPAVSPLPVRGGHVMRGTAFAYVPSPQVLHRIPGTSAYAFPSLGPVALAEHTCPCGEVLERHEPLPAKLALEEEQKPESRLVPKLRQAGAMLLKVPLMLTFLYLFVCSLDMLSSAFQLAGGKVAGDIFKDNAILSNPVAGLVVGILVTVLVQSSSTSTSIIVSMVSSGLLEVSSAIPIIMGSNIGTSVTNTIVALMQAGDRTDFRRAFAGATVHDCFNWLSVLVLLPLEAATGYLHHITRLVVASFNIHGGRDAPDLLKIITEPFTKLIIQLDESVITSIATGDESLRNHSLIQIWCHPDSLQAPTSMSRAEANSSQTLGNATMEKCNHIFVDTGLPDLAVGLILLAGSLVLLCTCLILLVKMLNSLLKGQVAKVIQKVINTDFPAPFTWVTGYFAMVVGASMTFVVQSSSVFTSAITPLIGLGVISIERAYPLTLGSNIGTTTTAILAALASPREKLSSAFQIALCHFFFNISGILLWYPVPCTRLPIRMAKALGKRTAKYRWFAVLYLLVCFLLLPSLVFGISMAGWQVMVGVGTPFGALLAFVVLINVLQSRSPGHLPKWLQTWDFLPRWMHSLKPLDHLITRATLCCARPEPRSPPLPPRVFLEELPPATPSPRLALPAHHNATRL
For B1, the binding [1] was “binds” and the binding [2] was “binds”.
